Measurements published in patent US20250129153A1 (Johns Hopkins, published 2025).
These are yes or no findings as the source states them, for the method shown. Some entries that bind do so weakly or less than the wild type. For some of these results: Sequences can lack the tags named with a protein.

Legend:
[1] = target: T1, human ZnT8-His (full-length ZnT8, isoform-2, C-terminal His-tag) (human) (UniProt Q8IWU4); test: ELISA, mAb titration on ZnT8 proteoliposomes passively immobilized on a plate
T1 sequence (looked up): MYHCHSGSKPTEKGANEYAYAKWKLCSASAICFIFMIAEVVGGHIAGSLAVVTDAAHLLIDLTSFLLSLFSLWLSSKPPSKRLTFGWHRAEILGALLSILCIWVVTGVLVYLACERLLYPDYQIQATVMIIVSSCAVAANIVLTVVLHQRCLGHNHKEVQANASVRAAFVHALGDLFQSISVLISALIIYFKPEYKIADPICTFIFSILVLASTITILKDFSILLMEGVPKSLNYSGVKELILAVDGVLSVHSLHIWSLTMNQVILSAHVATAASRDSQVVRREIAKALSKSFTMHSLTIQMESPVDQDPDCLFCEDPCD

[2] = target: T1, human ZnT8-His (full-length ZnT8, isoform-2, C-terminal His-tag) (human); test: ELISA titrations, detergent-solubilized ZnT8 and ZnT8 proteoliposomes
[3] = target: T2, human ZnT8 (endogenous, in EndoC-βH1 cells and human pancreatic islets) (human) (UniProt Q8IWU4); test: immunofluorescence of fixed and permeabilized EndoC-βH1 cells
T2 sequence: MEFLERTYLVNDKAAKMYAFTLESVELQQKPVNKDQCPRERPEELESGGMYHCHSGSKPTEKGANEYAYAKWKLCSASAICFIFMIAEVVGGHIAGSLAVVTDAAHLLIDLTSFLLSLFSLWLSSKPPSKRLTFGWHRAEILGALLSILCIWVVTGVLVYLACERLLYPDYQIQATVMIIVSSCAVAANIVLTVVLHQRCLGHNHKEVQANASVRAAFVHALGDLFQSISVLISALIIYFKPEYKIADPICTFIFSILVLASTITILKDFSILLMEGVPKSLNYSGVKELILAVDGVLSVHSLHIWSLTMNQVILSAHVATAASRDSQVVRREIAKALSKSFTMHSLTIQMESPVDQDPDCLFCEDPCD

[4] = target: T1, human ZnT8-His (full-length ZnT8, isoform-2, C-terminal His-tag) (human); test: ELISA, mAb titration on detergent-solubilized flZnT8 (ZnT8-His) captured on a plate
[5] = target: T2, human ZnT8 (endogenous, in EndoC-βH1 cells and human pancreatic islets) (human); test: immunoblot of SDS-denatured total lysate of EndoC-βH1 cells
[6] = target: T3, mouse ZnT8 (endogenous, in mouse pancreatic islets and β-cells) (mouse) (UniProt Q8BGG0); test: immunohistochemistry of paraffin-embedded mouse pancreas sections (chimeric mAb43 by paragraph 174)
T3 sequence (looked up): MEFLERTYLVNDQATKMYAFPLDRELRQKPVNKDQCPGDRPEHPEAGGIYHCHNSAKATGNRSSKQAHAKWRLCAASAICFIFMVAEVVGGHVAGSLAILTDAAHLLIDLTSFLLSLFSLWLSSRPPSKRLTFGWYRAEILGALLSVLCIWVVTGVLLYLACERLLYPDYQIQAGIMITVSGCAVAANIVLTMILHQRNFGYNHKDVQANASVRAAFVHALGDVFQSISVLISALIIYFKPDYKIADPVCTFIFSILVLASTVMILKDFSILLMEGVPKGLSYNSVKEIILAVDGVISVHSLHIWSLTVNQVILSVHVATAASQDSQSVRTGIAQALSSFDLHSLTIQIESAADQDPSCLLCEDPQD

[7] = target: T3, mouse ZnT8 (endogenous, in mouse pancreatic islets and β-cells) (mouse); test: flow cytometry and sorting of live dispersed mouse pancreatic cells, chimeric mAb43 with PE anti-human IgG

Measured: binding

B1: mAb20 (antibody, mouse IgG1, kappa, V domains shown)
VH: QIQLVQSGPELKKPGETVKISCKASGYIFTNYPMHWVKQAPGKGLKWMGWINTYSGVPTHADDFKGRFAFSLETSANSAFLQINNLKNEDTATYFCTRSRITPTGGYAMDYWGQGTSVTVSS
VL: DVVMTQTPLSLPVSLGDQASISCRSSQSLVHSNGNTYLHWYLQKPGQSPNLLISKVSNRFSGVPERFSGSGSGTDFTLKISRVEAEDLGVYFCSQNTHVPWTFGGGTKLEIKR
notes: Validated anti-CTD control antibody; also called anti-CTD mAb20; mAb20-A647 (mAb20 labeled with a fluorescent A647 secondary antibody)
not listed: [6] | [7]
binds: all other assays above

B2: chimeric mAb43 (mouse-Fab/human-Fc) (antibody, V domains shown)
VH: EVQLQQSGPELVKPGASVKIACKASGYTFTGYYMKWVKQSLGKSLEWIGDINPNNGGTNYNQHFKGKATLTVDESSSTAYMELRSLTSEDSAVYYCARGVDWIFAFWGQGTLVTVSP
VL: SIVMTQTPKFLPVSAGDRVTMTCKASQSVGNKVAWYQQKPGQSPKLLIYYATNRYTGVPDRFTGSGSGTDFTFTISSVQVEDLAVYFCQQHYSSPWTFGGGTKLEIK
binds: [6] | [7]
